Measured values taken from the supplement of paper PMC4604168 (melanoma cell lines).
The list shows a part of the results. Many values rest on one well or one pass, so single values are uncertain.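 Imaging used 1,536-well plates; nuclei positive for cleaved PARP by antibody were divided by total DNA-stained nuclei to yield the apoptosis fraction. Doses for screening kept most cells viable, and cell lines differ markedly in resting and induced cleaved-PARP levels.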

Each compound was assayed on COLO792 (assay: cleaved PARP positive nuclei fraction relative to DMSO control; melanoma cells; higher = more apoptosis). Conditions: library dose: low library concentration; 72 h.

Structure (SMILES)	cleaved PARP positive nuclei fraction
COc1ccc(COc2ccc(Cc3cnc(N)nc3N)cc2OC)cc1 + C/C(O)=C(\C#N)C(=O)Nc1cc(Br)ccc1Br [LFM-A13] (first compound 1 µM, partner dose 2 µM)	109%
O=C(Oc1ccc([N+](=O)[O-])cc1)N1CCC(C(O)(c2ccc3c(c2)OCO3)c2ccc3c(c2)OCO3)CC1 + CCCCCCCCCCCC1=C(O)C(=O)C=C(O)C1=O [Embelin] (first compound 1 µM, partner dose 1.2 µM)	91.8%
COc1cc(N2CCC(N3CCN(C)CC3)CC2)ccc1Nc1ncc(Cl)c(Nc2ccccc2S(=O)(=O)C(C)C)n1 + O=C(Oc1ccc([N+](=O)[O-])cc1)N1CCC(C(O)(c2ccc3c(c2)OCO3)c2ccc3c(c2)OCO3)CC1 [JZL184] (first compound 0.08 µM, partner dose 1 µM)	116%
O=C(Nc1ccccc1)c1cc([N+](=O)[O-])ccc1Cl + O=C(Oc1ccc([N+](=O)[O-])cc1)N1CCC(C(O)(c2ccc3c(c2)OCO3)c2ccc3c(c2)OCO3)CC1 [JZL184] (first compound 2 µM, partner dose 1 µM)	65.7%
COC(=O)c1sccc1S(=O)(=O)Nc1ccc(Nc2ccccc2)cc1OC + C/C(O)=C(\C#N)C(=O)Nc1cc(Br)ccc1Br [LFM-A13] (first compound 1 µM, partner dose 2 µM)	26.6%
O=C(Oc1ccc([N+](=O)[O-])cc1)N1CCC(C(O)(c2ccc3c(c2)OCO3)c2ccc3c(c2)OCO3)CC1 + CC(C)CCN1c2nc(Nc3cc(F)c(O)c(F)c3)ncc2N(C)C(=O)C1C [BID1870] (first compound 1 µM, partner dose 0.2 µM)	118%
C[As](C)SC[C@H](NC(=O)CC[C@H](N)C(=O)O)C(=O)NCC(=O)O [Darinaparsin] + CCN(CC)CCCCNc1ncc2cc(-c3cc(OC)cc(OC)c3)c(NC(=O)NC(C)(C)C)nc2n1 [PD173074] (first compound 0.4 µM, partner dose 0.1 µM)	194%
Cc1cc(SCc2sc(-c3ccc(C(F)(F)F)c(F)c3)nc2C)ccc1OCC(=O)O + C/C(O)=C(\C#N)C(=O)Nc1cc(Br)ccc1Br [LFM-A13] (first compound 2 µM, partner dose 2 µM)	168%
O=C(Nc1cccc(Cl)c1)Nc1ncc(CCNc2ncnc3ccsc23)s1 + O=C(Oc1ccc([N+](=O)[O-])cc1)N1CCC(C(O)(c2ccc3c(c2)OCO3)c2ccc3c(c2)OCO3)CC1 [JZL184] (first compound 0.0008 µM, partner dose 1 µM)	85.2%
COc1cc2c(Oc3ccc4[nH]c(C)cc4c3F)ncnc2cc1OCCCN1CCCC1 [cediranib] + Cc1cc(SCc2sc(-c3ccc(C(F)(F)F)c(F)c3)nc2C)ccc1OCC(=O)O [GW0742] (first compound 0.4 µM, partner dose 2 µM)	134%
CC1(C)NC(=O)N(c2ccc([N+](=O)[O-])c(C(F)(F)F)c2)C1=O [nilutamide] + Cc1cc(SCc2sc(-c3ccc(C(F)(F)F)c(F)c3)nc2C)ccc1OCC(=O)O [GW0742] (first compound 1 µM, partner dose 2 µM)	168%
COC(=O)c1sccc1S(=O)(=O)Nc1ccc(Nc2ccccc2)cc1OC + O=C(Oc1ccc([N+](=O)[O-])cc1)N1CCC(C(O)(c2ccc3c(c2)OCO3)c2ccc3c(c2)OCO3)CC1 [JZL184] (first compound 1 µM, partner dose 1 µM)	42.7%
C[As](C)SC[C@H](NC(=O)CC[C@H](N)C(=O)O)C(=O)NCC(=O)O [Darinaparsin] + COc1ccc(COc2ccc(Cc3cnc(N)nc3N)cc2OC)cc1 [GW2580] (first compound 0.4 µM, partner dose 1 µM)	71.3%
Cn1nnc2c(C(N)=O)ncn2c1=O [temozolomide] + C/C(O)=C(\C#N)C(=O)Nc1cc(Br)ccc1Br [LFM-A13] (first compound 2 µM, partner dose 2 µM)	105%
Cc1cc(SCc2sc(-c3ccc(C(F)(F)F)c(F)c3)nc2C)ccc1OCC(=O)O + Oc1nc(-c2ccc(C(F)(F)F)cc2)nc2c1CSCC2 [XAV939] (first compound 2 µM, partner dose 2 µM)	144%

Single values from the results shown:
Entry for CC1(C)NC(=O)N(c2ccc([N+](=O)[O-])c(C(F)(F)F)c2)C1=O [nilutamide] + Cc1cc(SCc2sc(-c3ccc(C(F)(F)F)c(F)c3)nc2C)ccc1OCC(=O)O [GW0742] (first compound 1 µM, partner dose 2 µM) under cleaved PARP positive nuclei fraction: 168%
Entry for COc1cc(N2CCC(N3CCN(C)CC3)CC2)ccc1Nc1ncc(Cl)c(Nc2ccccc2S(=O)(=O)C(C)C)n1 + O=C(Oc1ccc([N+](=O)[O-])cc1)N1CCC(C(O)(c2ccc3c(c2)OCO3)c2ccc3c(c2)OCO3)CC1 [JZL184] (first compound 0.08 µM, partner dose 1 µM) under cleaved PARP positive nuclei fraction: 116%
